The list shows a part of the results.
What was measured:
Test in all cases: glycan array binding signal (z-score within array); higher = stronger binding
Settings in all cases: glycan notation: IUPAC condensed, linker removed
[1] = biological target: Fuc(a1-2)Gal
Procedure, shortened: (§1)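 The binding signal is a Z-score computed within each array. Data were drawn from 3228 arrays in the Consortium for Functional Glycomics database, restricted to those with a known protein sequence. Scores were averaged over arrays of the same protein sequence at different concentrations or buffers, and over linkers, and negative values can be taken as non-binding.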

[2] = biological target: Fuc(a1-2)Gal(b1-3)GalNAc
Procedure, shortened: as §1

[3] = biological target: Fuc(a1-2)Gal(b1-3)GalNAc(b1-3)Gal
Procedure, shortened: as §1

[4] = biological target: Fuc(a1-2)Gal(b1-3)GalNAc(b1-3)Gal(a1-4)Gal(b1-4)Glc
Procedure, shortened: as §1

[5] = biological target: Fuc(a1-2)Gal(b1-3)GalNAc(b1-4)[Neu5Ac(a2-3)]Gal(b1-4)Glc
Procedure, shortened: as §1

[6] = biological target: Fuc(a1-2)Gal(b1-3)GlcNAc
Procedure, shortened: as §1

[7] = biological target: Fuc(a1-2)Gal(b1-3)GlcNAc(b1-3)Gal(b1-4)Glc
Procedure, shortened: as §1

[8] = biological target: Fuc(a1-2)Gal(b1-3)[Fuc(a1-4)]GlcNAc
Procedure, shortened: as §1

[9] = biological target: Fuc(a1-2)Gal(b1-4)Glc
Procedure, shortened: as §1

[10] = biological target: Fuc(a1-2)Gal(b1-4)Glc6S
Procedure, shortened: as §1

[11] = biological target: Fuc(a1-2)Gal(b1-4)GlcNAc
Procedure, shortened: as §1

[12] = biological target: Fuc(a1-2)Gal(b1-4)GlcNAc(b1-3)Gal(b1-4)GlcNAc
Procedure, shortened: as §1

[13] = biological target: Fuc(a1-2)Gal(b1-4)GlcNAc(b1-3)Gal(b1-4)GlcNAc(b1-3)Gal(b1-4)GlcNAc
Procedure, shortened: as §1

[14] = biological target: Fuc(a1-2)Gal(b1-4)GlcNAc6S
Procedure, shortened: as §1

[15] = biological target: Fuc(a1-2)Gal(b1-4)[Fuc(a1-3)]GlcNAc
Procedure, shortened: as §1

[16] = biological target: Fuc(a1-2)Gal(b1-4)[Fuc(a1-3)]GlcNAc(b1-3)Gal(b1-4)[Fuc(a1-3)]GlcNAc
Procedure, shortened: as §1

[17] = biological target: Fuc(a1-2)Gal(b1-4)[Fuc(a1-3)]GlcNAc(b1-3)Gal(b1-4)[Fuc(a1-3)]GlcNAc(b1-3)Gal(b1-4)[Fuc(a1-3)]GlcNAc
Procedure, shortened: as §1

[18] = biological target: Fuc(a1-2)Gal6S(b1-4)Glc
Procedure, shortened: as §1

[19] = biological target: Fuc(a1-2)Gal6S(b1-4)Glc6S
Procedure, shortened: as §1

[20] = biological target: Fuc(a1-2)Gal6S(b1-4)GlcNAc
Procedure, shortened: as §1

[21] = biological target: Fuc(a1-2)[Gal(a1-3)]Gal
Procedure, shortened: as §1

[22] = biological target: Fuc(a1-2)[Gal(a1-3)]Gal(b1-3)GlcNAc
Procedure, shortened: as §1

[23] = biological target: Fuc(a1-2)[Gal(a1-3)]Gal(b1-4)Glc
Procedure, shortened: as §1

[24] = biological target: Fuc(a1-2)[Gal(a1-3)]Gal(b1-4)GlcNAc
Procedure, shortened: as §1

[25] = biological target: Fuc(a1-2)[Gal(a1-3)]Gal(b1-4)[Fuc(a1-3)]GlcNAc
Procedure, shortened: as §1

[26] = biological target: Fuc(a1-2)[Gal(a1-4)]Gal(b1-4)GlcNAc
Procedure, shortened: as §1

[27] = biological target: Fuc(a1-2)[GalNAc(a1-3)]Gal
Procedure, shortened: as §1

[28] = biological target: Fuc(a1-2)[GalNAc(a1-3)]Gal(b1-3)GlcNAc
Procedure, shortened: as §1

[29] = biological target: Fuc(a1-2)[GalNAc(a1-3)]Gal(b1-4)Glc
Procedure, shortened: as §1

[30] = biological target: Fuc(a1-2)[GalNAc(a1-3)]Gal(b1-4)GlcNAc
Procedure, shortened: as §1

B1: CLC (Homo sapiens), Q9UBD9 (protein)
chain: MDLRAGDSWGMLACLCTVLWHLPAVPALNRTGDPGPGPSIQKTYDLTRYLEHQLRSLAGTYLNYLGPPFNEPDFNPPRLGAETLPRATVDLEVWRSLNDKLRLTQNYEAYSHLLCYLRGLNRQAATAELRRSLAHFCTSLQGLLGSIAGVMAALGYPLPQPLPGTEPTWTPGPAHSDFLQKMDDFWLLKELQTWLWRSAKDFNRLKKKMQPPAAAVTLHLGAHGF
**Q.** With B1 as the binder, how does the “glycan array binding signal (z-score)” value [1] read?
**A.** -0.642

**Q.** And the “glycan array binding signal (z-score)” value [2]?
**A.** 0.106

**Q.** And the “glycan array binding signal (z-score)” value [3]?
**A.** 0.79

**Q.** And the “glycan array binding signal (z-score)” value [4]?
**A.** -0.131

**Q.** And the “glycan array binding signal (z-score)” value [5]?
**A.** 1.57

**Q.** What about the “glycan array binding signal (z-score)” value [6] of the same binder?
**A.** -0.253

**Q.** And the “glycan array binding signal (z-score)” value [7]?
**A.** -0.218

**Q.** What about the “glycan array binding signal (z-score)” value [8] of the same binder?
**A.** -0.678

**Q.** And the “glycan array binding signal (z-score)” value [9]?
**A.** 0.506

**Q.** And the “glycan array binding signal (z-score)” value [10]?
**A.** -0.7

**Q.** What about the “glycan array binding signal (z-score)” value [11] of the same binder?
**A.** -0.022

**Q.** And the “glycan array binding signal (z-score)” value [12]?
**A.** -0.731

**Q.** What about the “glycan array binding signal (z-score)” value [13] of the same binder?
**A.** -0.886

**Q.** What about the “glycan array binding signal (z-score)” value [14] of the same binder?
**A.** -0.106

**Q.** And the “glycan array binding signal (z-score)” value [15]?
**A.** -0.557

**Q.** What about the “glycan array binding signal (z-score)” value [16] of the same binder?
**A.** -0.519

**Q.** And the “glycan array binding signal (z-score)” value [17]?
**A.** 0.011

**Q.** And the “glycan array binding signal (z-score)” value [18]?
**A.** -0.134

**Q.** And the “glycan array binding signal (z-score)” value [19]?
**A.** 2.23

**Q.** What about the “glycan array binding signal (z-score)” value [20] of the same binder?
**A.** 0.416

**Q.** And the “glycan array binding signal (z-score)” value [21]?
**A.** -0.644

**Q.** And the “glycan array binding signal (z-score)” value [22]?
**A.** -0.33

**Q.** And the “glycan array binding signal (z-score)” value [23]?
**A.** -0.24

**Q.** And the “glycan array binding signal (z-score)” value [24]?
**A.** 1.5

**Q.** What about the “glycan array binding signal (z-score)” value [25] of the same binder?
**A.** 0.566

**Q.** What about the “glycan array binding signal (z-score)” value [26] of the same binder?
**A.** 0.55

**Q.** What about the “glycan array binding signal (z-score)” value [27] of the same binder?
**A.** -0.451

**Q.** And the “glycan array binding signal (z-score)” value [28]?
**A.** -0.974

**Q.** What about the “glycan array binding signal (z-score)” value [29] of the same binder?
**A.** 1.52

**Q.** What about the “glycan array binding signal (z-score)” value [30] of the same binder?
**A.** -0.283
